Patent EP4477665A1 (AffyXell Therapeutics Co., Ltd., dated 2024)
These are yes or no findings as the source states them, for the method shown. Some binding calls cover weakened binding; strength is not graded here.

T1: human CD40L (hCD40L antigen) (human, UniProt P29965 113-261, limits assumed)
T1 sequence (looked up): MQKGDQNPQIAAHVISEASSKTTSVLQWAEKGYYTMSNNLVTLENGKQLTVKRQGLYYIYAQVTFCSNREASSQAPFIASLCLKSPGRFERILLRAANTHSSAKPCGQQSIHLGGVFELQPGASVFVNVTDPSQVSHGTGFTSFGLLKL

B1: clone 271 (designed binder)
chain: MIPGGLSEAKPATPEIQEIVDKVKPQLEEKTGETYGKLEAVQYKTQVVHAPAPVQAIGTNYYIKVRAGDNKYMHLKVFKSLPYWYRPNRPEDLVLTGYQVDKNKDDELTGF
B2: clone 272 (designed binder)
chain: MIPGGLSEAKPATPEIQEIVDKVKPQLEEKTGETYGKLEAVQYKTQVVWEDHWNYQYGTNYYIKVRAGDNKYMHLKVFKSLELYSNQIVWEDLVLTGYQVDKNKDDELTGF
B3: clone 273 (designed binder)
chain: MIPGGLSEAKPATPEIQEIVDKVKPQLEEKTGETYGKLEAVQYKTQVVSWRYKSNQLGTNYYIKVRAGDNKYMHLKVFKSLYKDWVVNPPEDLVLTGYQVDKNKDDELTGF
B4: clone 274 (designed binder)
chain: MIPGGLSEAKPATPEIQEIVDKVKPQLEEKTGETYGKLEAVQYKTQVVRVDWWLPEVGTNYYIKVRAGDNKYMHLKVFKSLPYQYRKDPKEDLVLTGYQVDKNKDDELTGF
B5: clone 275 (designed binder)
chain: MIPGGLSEAKPATPEIQEIVDKVKPQLEEKTGETYGKLEAVQYKTQVVSWIEISNQLGTNYYIKVRAGDNKYMHLKVFKSLYYGNTSILIEDLVLTGYQVDKNKDDELTGF
B6: clone 231 (designed binder)
chain: MIPGGLSEAKPATPEIQEIVDKVKPQLEEKTGETYGKLEAVQYKTQVVYYQIITWWQGTNYYIKVRAGDNKYMHLKVFKSLGIRKKQQQREDLVLTGYQVDKNKDDELTGF
B7: clone 276 (designed binder)
chain: MIPGGLSEAKPATPEIQEIVDKVKPQLEEKTGETYGKLEAVQYKTQVVSLGQAETWAGTNYYIKVRAGDNKYMHLKVFKSLFKYRHQQDKEDLVLTGYQVDKNKDDELTGF
B8: clone 278 (designed binder)
chain: MIPGGLSEAKPATPEIQEIVDKVKPQLEEKTGETYGKLEAVQYKTQVVKIGQLPSRVGTNYYIKVRAGDNKYMHLKVFKSLYWYRNPADREDLVLTGYQVDKNKDDELTGF
B9: clone 279 (designed binder)
chain: MIPGGLSEAKPATPEIQEIVDKVKPQLEEKTGETYGKLEAVQYKTQVVAWHTKNNSIGTNYYIKVRAGDNKYMHLKVFKSLETKLAHEDIEDLVLTGYQVDKNKDDELTGF
B10: clone 280 (designed binder)
chain: MIPGGLSEAKPATPEIQEIVDKVKPQLEEKTGETYGKLEAVQYKTQVVQTKLVTWWWGTNYYIKVRAGDNKYMHLKVFKSLLGEQYIDVDEDLVLTGYQVDKNKDDELTGF
B11: clone 281 (designed binder)
chain: MIPGGLSEAKPATPEIQEIVDKVKPQLEEKTGETYGKLEAVQYKTQVVAVFDYADPSGTNYYIKVRAGDNKYMHLKVFKSLPYRYRTHHKEDLVLTGYQVDKNKDDELTGF
B12: clone 282 (designed binder)
chain: MIPGGLSEAKPATPEIQEIVDKVKPQLEEKTGETYGKLEAVQYKTQVVHVKIVTWWKGTNYYIKVRAGDNKYMHLKVFKSLYNPKPGIDNEDLVLTGYQVDKNKDDELTGF
B13: clone 283 (designed binder)
chain: MIPGGLSEAKPATPEIQEIVDKVKPQLEEKTGETYGKLEAVQYKTQVVHVLKVSSVSGTNYYIKVRAGDNKYMHLKVFKSLFYYRKRYDREDLVLTGYQVDKNKDDELTGF
B14: clone 284 (designed binder)
chain: MIPGGLSEAKPATPEIQEIVDKVKPQLEEKTGETYGKLEAVQYKTQVVYQDYDSATHGTNYYIKVRAGDNKYMHLKVFKSLYQYRNPIDKEDLVLTGYQVDKNKDDELTGF
B15: clone 286 (designed binder)
chain: MIPGGLSEAKPATPEIQEIVDKVKPQLEEKTGETYGKLEAVQYKTQVVSWGKVSNELGTNYYIKVRAGDNKYMHLKVFKSLIEYQSPALYEDLVLTGYQVDKNKDDELTGF
B16: clone 287 (designed binder)
chain: MIPGGLSEAKPATPEIQEIVDKVKPQLEEKTGETYGKLEAVQYKTQVVLEDEWWSILGTNYYIKVRAGDNKYMHLKVFKSLPDAPAYSKSEDLVLTGYQVDKNKDDELTGF
B17: clone 232 (designed binder)
chain: MIPGGLSEAKPATPEIQEIVDKVKPQLEEKTGETYGKLEAVQYKTQVVVHGPHLEQAGTNYYIKVRAGDNKYMHLKVFKSLGHAFYFAFVEDLVLTGYQVDKNKDDELTGF
B18: clone 288 (designed binder)
chain: MIPGGLSEAKPATPEIQEIVDKVKPQLEEKTGETYGKLEAVQYKTQVVYYKLVTWWRGTNYYIKVRAGDNKYMHLKVFKSLPDLNYEVTLEDLVLTGYQVDKNKDDELTGF
B19: clone 289 (designed binder)
chain: MIPGGLSEAKPATPEIQEIVDKVKPQLEEKTGETYGKLEAVQYKTQVVAWVKEHNLIGTNYYIKVRAGDNKYMHLKVFKSLYDQNQWSPHEDLVLTGYQVDKNKDDELTGF
B20: clone 290 (designed binder)
chain: MIPGGLSEAKPATPEIQEIVDKVKPQLEEKTGETYGKLEAVQYKTQVVQEYLWKQYIGTNYYIKVRAGDNKYMHLKVFKSLRWQYRHPQTEDLVLTGYQVDKNKDDELTGF
B21: clone 291 (designed binder)
chain: MIPGGLSEAKPATPEIQEIVDKVKPQLEEKTGETYGKLEAVQYKTQVVFNKDLFLGWGTNYYIKVRAGDNKYMHLKVFKSLRFSAGEEWEEDLVLTGYQVDKNKDDELTGF
B22: clone 292 (designed binder)
chain: MIPGGLSEAKPATPEIQEIVDKVKPQLEEKTGETYGKLEAVQYKTQVVHFGIRYAHVGTNYYIKVRAGDNKYMHLKVFKSLDYPRHHQDQEDLVLTGYQVDKNKDDELTGF
B23: clone 293 (designed binder)
chain: MIPGGLSEAKPATPEIQEIVDKVKPQLEEKTGETYGKLEAVQYKTQVVWYAWQEGWQGTNYYIKVRAGDNKYMHLKVFKSLFRKKWAQLWEDLVLTGYQVDKNKDDELTGF
B24: clone 294 (designed binder)
chain: MIPGGLSEAKPATPEIQEIVDKVKPQLEEKTGETYGKLEAVQYKTQVVGNAAWGSFAGTNYYIKVRAGDNKYMHLKVFKSLPFFYRKDNPEDLVLTGYQVDKNKDDELTGF
B25: clone 295 (designed binder)
chain: MIPGGLSEAKPATPEIQEIVDKVKPQLEEKTGETYGKLEAVQYKTQVVREDLDLFYTGTNYYIKVRAGDNKYMHLKVFKSLEFILQPWWYEDLVLTGYQVDKNKDDELTGF
B26: clone 296 (designed binder)
chain: MIPGGLSEAKPATPEIQEIVDKVKPQLEEKTGETYGKLEAVQYKTQVVNENVYRVTQGTNYYIKVRAGDNKYMHLKVFKSLKYRHRLTYEEDLVLTGYQVDKNKDDELTGF
B27: clone 297 (designed binder)
chain: MIPGGLSEAKPATPEIQEIVDKVKPQLEEKTGETYGKLEAVQYKTQVVWHKIVTQWPGTNYYIKVRAGDNKYMHLKVFKSLYAQRGEVYFEDLVLTGYQVDKNKDDELTGF
B28: clone 233 (designed binder)
chain: MIPGGLSEAKPATPEIQEIVDKVKPQLEEKTGETYGKLEAVQYKTQVVLQDQWPWRDGTNYYIKVRAGDNKYMHLKVFKSLTYGKKWYSWEDLVLTGYQVDKNKDDELTGF
B29: clone 298 (designed binder)
chain: MIPGGLSEAKPATPEIQEIVDKVKPQLEEKTGETYGKLEAVQYKTQVVHYRIITHWEGTNYYIKVRAGDNKYMHLKVFKSLVRAFLYYKDEDLVLTGYQVDKNKDDELTGF
B30: clone 299 (designed binder)
chain: MIPGGLSEAKPATPEIQEIVDKVKPQLEEKTGETYGKLEAVQYKTQVVLVFDASTSAGTNYYIKVRAGDNKYMHLKVFKSLPWEFRGDHKEDLVLTGYQVDKNKDDELTGF
B31: clone 300 (designed binder)
chain: MIPGGLSEAKPATPEIQEIVDKVKPQLEEKTGETYGKLEAVQYKTQVVQYAEFLEHIGTNYYIKVRAGDNKYMHLKVFKSLGWSHYFQYLEDLVLTGYQVDKNKDDELTGF
B32: clone 301 (designed binder)
chain: MIPGGLSEAKPATPEIQEIVDKVKPQLEEKTGETYGKLEAVQYKTQVVGNVQEDWHIGTNYYIKVRAGDNKYMHLKVFKSLFSEDLTLNGEDLVLTGYQVDKNKDDELTGF
B33: clone 302 (designed binder)
chain: MIPGGLSEAKPATPEIQEIVDKVKPQLEEKTGETYGKLEAVQYKTQVVGWSASYPESGTNYYIKVRAGDNKYMHLKVFKSLTQWEFIEWPEDLVLTGYQVDKNKDDELTGF
B34: clone 303 (designed binder)
chain: MIPGGLSEAKPATPEIQEIVDKVKPQLEEKTGETYGKLEAVQYKTQVVYQFEHISYGGTNYYIKVRAGDNKYMHLKVFKSLFTYRLPQHREDLVLTGYQVDKNKDDELTGF
B35: clone 304 (designed binder)
chain: MIPGGLSEAKPATPEIQEIVDKVKPQLEEKTGETYGKLEAVQYKTQVVAWITPVNVLGTNYYIKVRAGDNKYMHLKVFKSLDEIFHGAYNEDLVLTGYQVDKNKDDELTGF

Biological target: T1, human CD40L (hCD40L antigen)
Test: ELISA, bacterial lysate on immobilized human CD40L, anti-Myc detection

binding, binds:
B1
B2
B3
B4
B5
B6
B7
B8
B9
B10
B11
B12
B13
B14
B15
B16
B17
B18
B19
B20
B21
B22
B23
B24
B25
B26
B27
B28
B29
B30
B31
B32
B33
B34
B35
